Measurements reported in PubChem BioAssay AID1259267 (Sanger Institute, 2017).

- Assay: 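Essential and drug-synergistic knock-downs in GP5D bowel cancer cells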 (primary screen)
- Cell system: human GP5D colorectal cancer cells
- Reagents: siRNA pool against human genes
- Treatment: anchor drugs at low dose: BYL719 1 µM, cetuximab 5 µg/ml, trametinib 10 nM, or DMSO vehicle
- Read-out: 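Viability against non-targeting pool, replicate mean: robust z-score for knock-down alone, fraction with DMSO, synergy with BYL719 1 µM, cetuximab 5 µg/ml, trametinib 10 nM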
- Scale: robust z-score, knock-down alone: higher = more viable cells
- Call rule: 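a robust z-score below -3 for the knock-down by itself makes a gene active, i.e. essential alone; synergy scores are ignored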
- Meaning of the calls: active = essential alone; inactive = not essential
In all, the deposit lists 794 reagents; this is a random part of them. In the full data, 9 (1.1%) were called active. 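Viability capped at 1; calls reflect loss of viability from knock-down alone, not synergy with drugs.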 Unmarked entries are inactive. Further read-outs or replicates are left out here. Not given: the amount of reagent, the time to read-out.

| Target gene | robust z-score, knock-down alone |
| --- | --- |
| ALK (ALK receptor tyrosine kinase) | -1.59 |
| LMTK1 (lemur tail kinase 1) | -2.71 |
| ROR2 (ROR family WNT receptor 2) | 0.817 |
| ERN1 (endoplasmic reticulum to nucleus signaling 1) | -2.03 |
| NME6 (NME/NM23 nucleoside diphosphate kinase 6) | -1.63 |
| PDXK (pyridoxal kinase) | 0.817 |
| RBKS (ribokinase) | 0.0238 |
| MAST1 (microtubule associated serine/threonine kinase 1) | 0.64 |
| PIK3C3 (phosphatidylinositol 3-kinase catalytic subunit type 3) | 0.817 |
| CDK18 (cyclin dependent kinase 18) | -2.78 |
| PAK4 (p21 (RAC1) activated kinase 4) | 0.817 |
| AMHR2 (anti-Mullerian hormone receptor type 2) | 0.287 |
| HSPB8 (heat shock protein family B (small) member 8) | 0.0336 |
| CNOT1 (CCR4-NOT transcription complex subunit 1) | -2.91 |
| FLT1 (fms related receptor tyrosine kinase 1) | 0.817 |
| TLK1 (tousled like kinase 1) | -0.237 |
| CDK5R2 (cyclin dependent kinase 5 regulatory subunit 2) | -1.22 |
